3 molecules from publication doi:10.1101/2023.08.29.555364 can be followed below.

Amino acid sequences for entries named in this document (tags omitted). A change or cut given only in a name is not applied to a line headed by its entry. Residues count along the entry.
UniProt P37173, 23-567: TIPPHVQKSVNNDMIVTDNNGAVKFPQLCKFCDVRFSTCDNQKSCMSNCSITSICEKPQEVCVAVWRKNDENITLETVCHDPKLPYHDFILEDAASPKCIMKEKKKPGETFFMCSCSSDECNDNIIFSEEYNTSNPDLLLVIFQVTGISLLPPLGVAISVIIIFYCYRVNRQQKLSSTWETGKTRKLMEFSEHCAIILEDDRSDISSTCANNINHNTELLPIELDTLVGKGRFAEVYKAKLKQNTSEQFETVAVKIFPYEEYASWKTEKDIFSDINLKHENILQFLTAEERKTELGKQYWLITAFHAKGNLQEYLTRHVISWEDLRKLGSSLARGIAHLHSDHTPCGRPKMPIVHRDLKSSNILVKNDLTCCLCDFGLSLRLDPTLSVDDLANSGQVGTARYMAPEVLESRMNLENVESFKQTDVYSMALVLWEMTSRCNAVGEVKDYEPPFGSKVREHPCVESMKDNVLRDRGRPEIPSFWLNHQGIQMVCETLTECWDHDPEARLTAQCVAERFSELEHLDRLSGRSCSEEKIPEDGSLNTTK
UniProt P01137, 279-390: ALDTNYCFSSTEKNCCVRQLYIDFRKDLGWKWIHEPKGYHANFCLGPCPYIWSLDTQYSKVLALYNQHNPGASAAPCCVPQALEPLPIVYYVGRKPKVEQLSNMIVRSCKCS

Where a chain is given by its changes, count along the chain named. No constants are given. Whether binding was seen depends on the method and setting. In cells and extracts the contact can be indirect. Some results given as binding are weak or reduced against the parent protein; the word gives no strength. Sequences can lack the tags named with a protein.

The target of experiment [1] is T1, BG lacking GAG chains (BG-ΔGAG), double Ser-Ala mutant S534A/S545A of HA-tagged human BG (human) (UniProt Q03167).
T1 sequence: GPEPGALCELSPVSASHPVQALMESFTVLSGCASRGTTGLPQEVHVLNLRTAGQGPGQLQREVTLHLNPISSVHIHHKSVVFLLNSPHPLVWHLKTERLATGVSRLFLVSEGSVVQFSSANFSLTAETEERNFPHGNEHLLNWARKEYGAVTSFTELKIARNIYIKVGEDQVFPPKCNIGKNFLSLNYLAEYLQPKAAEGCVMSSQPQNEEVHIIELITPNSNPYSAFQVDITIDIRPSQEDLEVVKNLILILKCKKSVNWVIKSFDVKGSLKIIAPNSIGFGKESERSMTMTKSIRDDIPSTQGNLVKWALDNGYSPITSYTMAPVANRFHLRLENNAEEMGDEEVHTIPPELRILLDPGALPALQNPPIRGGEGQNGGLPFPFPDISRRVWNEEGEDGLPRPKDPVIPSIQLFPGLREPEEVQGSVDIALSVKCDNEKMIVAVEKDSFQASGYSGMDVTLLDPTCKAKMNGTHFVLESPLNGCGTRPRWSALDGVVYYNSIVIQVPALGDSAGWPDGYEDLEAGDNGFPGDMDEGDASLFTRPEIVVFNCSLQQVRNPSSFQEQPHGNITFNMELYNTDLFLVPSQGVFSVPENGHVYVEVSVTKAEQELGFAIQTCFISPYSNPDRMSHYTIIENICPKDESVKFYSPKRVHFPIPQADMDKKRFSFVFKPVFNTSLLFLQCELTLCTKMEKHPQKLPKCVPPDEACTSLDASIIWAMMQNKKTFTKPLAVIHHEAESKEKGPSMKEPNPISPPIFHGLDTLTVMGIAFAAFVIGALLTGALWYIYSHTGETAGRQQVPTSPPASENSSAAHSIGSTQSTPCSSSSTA
The experiment can be described thus: co-IP.

For experiment [2], the target named is T2, Ascites-derived soluble betaglycan (sol-BG) of ovarian cancer patients (human (endogenous in patient ascites fluid)) (UniProt Q03167).
T2 sequence (chain, glycosaminoglycan modified (both HS and CS chains)): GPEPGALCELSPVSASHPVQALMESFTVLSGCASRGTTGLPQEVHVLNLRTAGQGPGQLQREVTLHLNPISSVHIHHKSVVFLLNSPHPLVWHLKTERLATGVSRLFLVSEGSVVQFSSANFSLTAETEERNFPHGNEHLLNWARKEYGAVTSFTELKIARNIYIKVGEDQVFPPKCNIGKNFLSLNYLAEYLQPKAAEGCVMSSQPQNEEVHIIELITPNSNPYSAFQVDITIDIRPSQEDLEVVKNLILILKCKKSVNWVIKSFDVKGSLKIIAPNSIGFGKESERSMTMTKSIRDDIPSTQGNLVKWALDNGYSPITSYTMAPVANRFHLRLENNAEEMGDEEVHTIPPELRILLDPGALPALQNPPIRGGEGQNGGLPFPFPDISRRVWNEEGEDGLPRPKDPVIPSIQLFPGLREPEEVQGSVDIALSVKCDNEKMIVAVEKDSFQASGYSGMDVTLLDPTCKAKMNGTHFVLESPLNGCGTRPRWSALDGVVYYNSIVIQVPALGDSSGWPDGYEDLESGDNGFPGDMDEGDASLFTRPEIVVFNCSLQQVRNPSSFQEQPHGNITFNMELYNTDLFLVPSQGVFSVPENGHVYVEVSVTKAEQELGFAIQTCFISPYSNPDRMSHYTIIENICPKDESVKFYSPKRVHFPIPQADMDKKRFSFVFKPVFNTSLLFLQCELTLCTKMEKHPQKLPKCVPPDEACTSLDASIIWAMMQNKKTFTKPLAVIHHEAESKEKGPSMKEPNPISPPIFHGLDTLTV
The experiment can be described thus: radioligand binding + cross-linking.

Experiment [3] addresses T3, BG S545A (HS-BG), single GAG attachment site mutant of HA-tagged human BG (human) (UniProt Q03167).
T3 sequence (chain, heparan sulfate glycosaminoglycan chains (HS only; called HS-BG)): T1 sequence with A514S
The experiment can be described thus: radioligand binding + cross-linking.

Experiment [4] addresses T1, BG lacking GAG chains (BG-ΔGAG), double Ser-Ala mutant S534A/S545A of HA-tagged human BG (human). The experiment can be described thus: radioligand binding + cross-linking.
For experiment [5], the target named is T4, Shed betaglycan (shed-BG) from FL-BG expressing cells (human) (UniProt Q03167).
T4 sequence (chain, glycosaminoglycan chains (glycosylated forms ranging from 90kDa to 250kDa)): T2 sequence (chain, glycosaminoglycan modified (both HS and CS chains))
The experiment can be described thus: radioligand binding + cross-linking.

The target of experiment [6] is T5, Shed betaglycan from ΔGAG-BG expressing cells (human) (UniProt Q03167).
T5 sequence: T2 sequence (chain, glycosaminoglycan modified (both HS and CS chains)) with S514A, S525A
In words: radioligand binding + cross-linking.

Consider “TGF-βRII (from UniProt P37173 23-567) (receptor)”, for which the binding result in experiment [1] is recorded as “binds”.

Take “[125I]-Bolton-Hunter labeled Transforming Growth Factor-β1 (Human, Recombinant) (from UniProt P01137 279-390) (ligand)”: the binding result in experiment [2], in experiment [3], in experiment [4], in experiment [5] and in experiment [6] was “binds” throughout.

B1: TGF-βRI (receptor, UniProt P36897 34-503)
chain: LQCFCHLCTKDNFTCVTDGLCFVSVTETTDKVIHNSMCIAEIDLIPRDRPFVCAPSSKTGSVTTTYCCNQDHCNKIELPTTVKSSPGLGPVELAAVIAGPVCFVCISLMLMVYICHNRTVIHHRVPNEEDPSLDRPFISEGTTLKDLIYDMTTSGSGSGLPLLVQRTIARTIVLQESIGKGRFGEVWRGKWRGEEVAVKIFSSREERSWFREAEIYQTVMLRHENILGFIAADNKDNGTWTQLWLVSDYHEHGSLFDYLNRYTVTVEGMIKLALSTASGLAHLHMEIVGTQGKPAIAHRDLKSKNILVKKNGTCCIADLGLAVRHDSATDTIDIAPNHRVGTKRYMAPEVLDDSINMKHFESFKRADIYAMGLVFWEIARRCSIGGIHEDYQLPYYDLVPSDPSVEEMRKVVCEQKLRPNIPNRWQSCEALRVMAKIMRECWYANGAARLTALRIKKTLSQLSQQEGIKM
Regarding B1, the binding result in experiment [1] is on record as “binds”.
